These are yes or no findings as the source states them, for the method shown. Binding seen in cells or lysates may run through a third protein. A yes stands for co-enrichment or nearness to the bait. Other partners may have been found.
Target: T1, OTUD6B (bait of the IP-MS) (UniProt Q8N6M0)
T1 sequence: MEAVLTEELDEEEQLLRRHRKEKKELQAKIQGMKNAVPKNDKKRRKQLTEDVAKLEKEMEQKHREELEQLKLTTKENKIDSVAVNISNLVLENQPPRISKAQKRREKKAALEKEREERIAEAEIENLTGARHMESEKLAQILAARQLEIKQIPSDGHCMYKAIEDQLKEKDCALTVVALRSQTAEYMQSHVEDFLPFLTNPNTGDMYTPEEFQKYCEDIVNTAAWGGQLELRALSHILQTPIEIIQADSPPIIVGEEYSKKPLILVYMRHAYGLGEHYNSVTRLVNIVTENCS
Experiment: affinity purification with mass spectrometry; immunoprecipitation of OTUD6B from HCT116 cells and mass spectrometry (IP-MS); 558 interacting proteins

By UniProt entry, the sequences of proteins in these tests, tags left out.
UniProt P17844: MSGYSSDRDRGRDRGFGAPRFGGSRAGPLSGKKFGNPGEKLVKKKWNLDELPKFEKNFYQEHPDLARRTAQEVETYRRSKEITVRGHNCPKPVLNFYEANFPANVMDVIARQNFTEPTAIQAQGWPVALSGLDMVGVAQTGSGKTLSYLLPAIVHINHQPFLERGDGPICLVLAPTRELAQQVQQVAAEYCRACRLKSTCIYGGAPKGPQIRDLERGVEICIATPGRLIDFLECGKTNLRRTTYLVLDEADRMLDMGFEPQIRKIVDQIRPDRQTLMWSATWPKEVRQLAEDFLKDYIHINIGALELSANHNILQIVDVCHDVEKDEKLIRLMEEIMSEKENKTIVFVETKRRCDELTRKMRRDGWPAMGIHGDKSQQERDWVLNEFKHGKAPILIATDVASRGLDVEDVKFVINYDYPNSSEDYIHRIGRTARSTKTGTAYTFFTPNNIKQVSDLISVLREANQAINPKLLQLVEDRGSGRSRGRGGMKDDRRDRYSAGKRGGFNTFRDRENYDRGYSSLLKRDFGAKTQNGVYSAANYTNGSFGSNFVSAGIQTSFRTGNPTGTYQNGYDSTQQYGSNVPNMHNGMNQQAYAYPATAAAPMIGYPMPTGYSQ

- binding: binds
Substance: DDX5 (from UniProt P17844 1-614) (enzyme)

Source: article PMC12255723
